Results as given in PMC7005485.
Results are given in words; binding and its absence hold for the method and conditions named. In cells and extracts the contact can be indirect. Some entries that bind do so weakly or less than the wild type.

Sequences of proteins named here, by UniProt entry; tags and fusion partners are left off.
UniProt Q13526: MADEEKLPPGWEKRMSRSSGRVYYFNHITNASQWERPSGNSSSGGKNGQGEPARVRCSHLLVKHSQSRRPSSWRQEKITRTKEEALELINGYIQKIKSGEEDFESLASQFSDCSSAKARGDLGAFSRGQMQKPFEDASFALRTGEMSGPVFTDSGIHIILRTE
UniProt P03146: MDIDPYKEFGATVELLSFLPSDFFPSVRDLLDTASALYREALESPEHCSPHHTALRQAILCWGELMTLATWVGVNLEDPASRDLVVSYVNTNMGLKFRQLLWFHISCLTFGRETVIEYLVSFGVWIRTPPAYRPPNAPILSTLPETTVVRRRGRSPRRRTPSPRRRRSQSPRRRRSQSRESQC

Assays:
[1] = target: GST-Pin1 (peptidyl-prolyl cis-trans isomerase NIMA-interacting 1) (UniProt Q13526); test: pull-down; GST, GST-Pin1 or GST-Pin1W34A on glutathione-agarose beads incubated with cell lysate at 4°C for 3 h in GST pull-down buffer (50 mM HEPES pH 7.4, 200 mM NaCl, 10% glycerol, 1% Triton X-100); cells treated with 100 nM bafilomycin A1 and 4 mM NH4Cl for 15 h before harvest; in some panels cells treated with roscovitine (50 uM, 15 h) or expressing HT-PDP2; immunoblot; only the target purified
[2] = target: HBc of stably HBV-producing HepG2.2.15.7 cells (hepatitis B virus) (UniProt P03146); test: co-IP; HepG2.2.15.7 cell lysates immunoprecipitated with anti-HBc or non-immunized IgG; immunoblot with anti-Pin1 or anti-HBc

Row | Substance | binding [1] | binding [2]
1 | HBc of stably HBV-producing HepG2.2.15.7 cells (from UniProt P03146 1-183) | binds | –
2 | endogenous Pin1 (from UniProt Q13526 1-163) (enzyme) | – | binds
